Test results published in the supplement of paper PMC10849652.
The list shows a part of the results.

Amino acid sequences for entries named in this document (tags omitted). A change or cut given only in a name is not applied to a line headed by its entry.
UniProt Q3KRA9: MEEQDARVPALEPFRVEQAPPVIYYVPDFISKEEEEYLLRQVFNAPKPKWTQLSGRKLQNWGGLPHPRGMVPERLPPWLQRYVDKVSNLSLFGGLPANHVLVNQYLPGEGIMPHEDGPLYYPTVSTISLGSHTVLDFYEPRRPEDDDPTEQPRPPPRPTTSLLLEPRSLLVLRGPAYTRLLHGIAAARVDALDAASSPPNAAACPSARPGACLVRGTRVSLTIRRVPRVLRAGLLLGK
UniProt P54886: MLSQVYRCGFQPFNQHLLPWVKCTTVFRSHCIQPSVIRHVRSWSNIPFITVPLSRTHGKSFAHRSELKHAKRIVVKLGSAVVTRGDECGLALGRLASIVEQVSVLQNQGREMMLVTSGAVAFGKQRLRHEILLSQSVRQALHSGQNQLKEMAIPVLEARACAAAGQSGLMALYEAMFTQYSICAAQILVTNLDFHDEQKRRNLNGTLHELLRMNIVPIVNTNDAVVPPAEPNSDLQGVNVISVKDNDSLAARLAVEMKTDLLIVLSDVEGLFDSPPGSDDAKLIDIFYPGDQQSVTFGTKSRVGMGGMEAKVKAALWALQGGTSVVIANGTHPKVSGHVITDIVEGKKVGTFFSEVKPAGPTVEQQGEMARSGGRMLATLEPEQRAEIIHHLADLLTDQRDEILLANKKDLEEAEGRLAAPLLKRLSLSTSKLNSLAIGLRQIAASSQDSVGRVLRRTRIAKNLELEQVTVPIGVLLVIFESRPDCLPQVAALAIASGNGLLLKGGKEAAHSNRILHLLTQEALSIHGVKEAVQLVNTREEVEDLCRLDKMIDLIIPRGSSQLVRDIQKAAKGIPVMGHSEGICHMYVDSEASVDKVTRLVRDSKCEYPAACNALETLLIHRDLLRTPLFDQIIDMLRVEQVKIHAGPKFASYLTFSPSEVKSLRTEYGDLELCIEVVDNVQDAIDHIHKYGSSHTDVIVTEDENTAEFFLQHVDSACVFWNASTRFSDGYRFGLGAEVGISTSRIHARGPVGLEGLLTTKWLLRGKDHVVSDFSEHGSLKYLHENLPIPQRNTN
UniProt Q86W74: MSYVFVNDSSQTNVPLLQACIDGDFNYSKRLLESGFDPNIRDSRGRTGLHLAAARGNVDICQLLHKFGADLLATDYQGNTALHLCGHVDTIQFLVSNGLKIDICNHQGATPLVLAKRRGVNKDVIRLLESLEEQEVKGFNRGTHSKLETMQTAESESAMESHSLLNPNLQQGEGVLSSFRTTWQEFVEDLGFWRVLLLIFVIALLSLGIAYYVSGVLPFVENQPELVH
UniProt Q96F25: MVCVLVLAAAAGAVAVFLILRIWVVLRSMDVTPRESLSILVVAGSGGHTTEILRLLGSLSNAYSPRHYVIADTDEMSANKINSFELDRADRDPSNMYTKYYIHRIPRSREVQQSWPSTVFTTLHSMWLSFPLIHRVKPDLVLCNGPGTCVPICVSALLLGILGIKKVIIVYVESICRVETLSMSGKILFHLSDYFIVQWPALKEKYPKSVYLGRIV
UniProt Q9P2G1: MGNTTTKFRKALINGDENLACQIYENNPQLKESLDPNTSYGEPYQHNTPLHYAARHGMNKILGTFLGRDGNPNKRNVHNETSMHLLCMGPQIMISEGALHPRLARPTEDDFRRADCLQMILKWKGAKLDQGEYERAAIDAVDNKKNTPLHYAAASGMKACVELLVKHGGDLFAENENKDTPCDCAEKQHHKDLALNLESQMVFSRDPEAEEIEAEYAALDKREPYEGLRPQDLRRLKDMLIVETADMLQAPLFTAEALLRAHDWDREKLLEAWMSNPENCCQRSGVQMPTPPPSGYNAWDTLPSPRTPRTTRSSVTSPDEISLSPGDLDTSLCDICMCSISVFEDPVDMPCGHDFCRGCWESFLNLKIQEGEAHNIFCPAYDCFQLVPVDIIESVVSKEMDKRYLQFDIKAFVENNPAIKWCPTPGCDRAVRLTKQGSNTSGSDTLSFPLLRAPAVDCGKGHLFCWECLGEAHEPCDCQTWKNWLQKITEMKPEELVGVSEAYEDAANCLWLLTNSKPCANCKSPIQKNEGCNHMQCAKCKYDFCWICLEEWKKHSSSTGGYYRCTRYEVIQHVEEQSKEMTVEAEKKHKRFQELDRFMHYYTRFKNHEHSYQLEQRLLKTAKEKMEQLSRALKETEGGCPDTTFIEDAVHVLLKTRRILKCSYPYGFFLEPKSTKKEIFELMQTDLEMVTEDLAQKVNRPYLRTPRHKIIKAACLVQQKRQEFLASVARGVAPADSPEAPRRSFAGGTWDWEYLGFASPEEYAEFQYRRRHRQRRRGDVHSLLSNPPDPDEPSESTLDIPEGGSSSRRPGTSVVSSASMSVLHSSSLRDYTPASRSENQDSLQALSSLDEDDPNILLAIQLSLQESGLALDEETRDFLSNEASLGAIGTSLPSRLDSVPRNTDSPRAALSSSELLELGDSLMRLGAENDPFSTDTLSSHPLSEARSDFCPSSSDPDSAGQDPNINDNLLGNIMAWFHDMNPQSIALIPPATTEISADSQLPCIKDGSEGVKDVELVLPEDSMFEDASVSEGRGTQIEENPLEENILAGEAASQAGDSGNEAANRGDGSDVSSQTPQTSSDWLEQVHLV
UniProt P59780: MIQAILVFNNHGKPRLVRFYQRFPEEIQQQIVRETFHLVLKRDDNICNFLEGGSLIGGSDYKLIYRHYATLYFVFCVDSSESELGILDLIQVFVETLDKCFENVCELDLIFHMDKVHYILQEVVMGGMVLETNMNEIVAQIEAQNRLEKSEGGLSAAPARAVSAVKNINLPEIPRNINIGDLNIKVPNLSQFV
UniProt Q86SJ2: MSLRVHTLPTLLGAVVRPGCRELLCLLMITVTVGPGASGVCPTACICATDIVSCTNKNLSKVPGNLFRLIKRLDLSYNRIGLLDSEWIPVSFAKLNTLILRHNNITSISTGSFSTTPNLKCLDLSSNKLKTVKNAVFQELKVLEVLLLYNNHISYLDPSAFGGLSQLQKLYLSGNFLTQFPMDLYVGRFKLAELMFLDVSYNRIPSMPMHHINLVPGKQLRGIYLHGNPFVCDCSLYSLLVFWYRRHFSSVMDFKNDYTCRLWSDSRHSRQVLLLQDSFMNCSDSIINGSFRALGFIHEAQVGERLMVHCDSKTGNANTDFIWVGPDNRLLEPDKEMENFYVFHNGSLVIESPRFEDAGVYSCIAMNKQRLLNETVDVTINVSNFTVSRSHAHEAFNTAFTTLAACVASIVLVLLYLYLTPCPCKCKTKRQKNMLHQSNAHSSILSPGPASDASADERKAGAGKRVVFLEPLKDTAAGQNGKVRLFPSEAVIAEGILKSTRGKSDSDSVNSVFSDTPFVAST
UniProt Q4VCS5: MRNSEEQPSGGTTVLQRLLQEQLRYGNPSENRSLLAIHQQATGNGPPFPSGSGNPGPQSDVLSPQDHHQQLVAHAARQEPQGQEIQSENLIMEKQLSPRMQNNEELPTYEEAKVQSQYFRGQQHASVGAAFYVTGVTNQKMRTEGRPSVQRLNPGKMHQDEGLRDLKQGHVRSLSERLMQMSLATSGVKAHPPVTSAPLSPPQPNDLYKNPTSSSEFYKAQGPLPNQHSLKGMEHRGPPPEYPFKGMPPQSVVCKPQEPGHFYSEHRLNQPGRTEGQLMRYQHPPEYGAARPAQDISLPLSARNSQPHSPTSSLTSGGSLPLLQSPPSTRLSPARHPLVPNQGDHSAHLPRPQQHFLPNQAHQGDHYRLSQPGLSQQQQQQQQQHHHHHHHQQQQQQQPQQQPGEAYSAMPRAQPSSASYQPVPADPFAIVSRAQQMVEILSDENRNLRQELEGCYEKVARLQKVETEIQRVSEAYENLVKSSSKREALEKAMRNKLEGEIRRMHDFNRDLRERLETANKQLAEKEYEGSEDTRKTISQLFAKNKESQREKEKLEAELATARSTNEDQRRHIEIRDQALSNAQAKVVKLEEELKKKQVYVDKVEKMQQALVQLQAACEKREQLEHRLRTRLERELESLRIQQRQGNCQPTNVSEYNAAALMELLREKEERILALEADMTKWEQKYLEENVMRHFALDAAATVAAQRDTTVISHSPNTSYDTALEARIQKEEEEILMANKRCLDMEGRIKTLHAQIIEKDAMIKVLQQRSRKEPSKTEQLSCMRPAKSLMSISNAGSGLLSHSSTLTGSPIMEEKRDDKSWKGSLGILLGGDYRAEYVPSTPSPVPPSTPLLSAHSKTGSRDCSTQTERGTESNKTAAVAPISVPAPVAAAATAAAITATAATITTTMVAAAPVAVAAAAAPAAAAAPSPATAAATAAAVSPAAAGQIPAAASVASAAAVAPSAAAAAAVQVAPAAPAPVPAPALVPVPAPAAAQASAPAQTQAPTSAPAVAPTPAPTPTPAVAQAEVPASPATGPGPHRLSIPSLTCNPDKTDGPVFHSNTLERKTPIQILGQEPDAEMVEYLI
UniProt Q53RE8: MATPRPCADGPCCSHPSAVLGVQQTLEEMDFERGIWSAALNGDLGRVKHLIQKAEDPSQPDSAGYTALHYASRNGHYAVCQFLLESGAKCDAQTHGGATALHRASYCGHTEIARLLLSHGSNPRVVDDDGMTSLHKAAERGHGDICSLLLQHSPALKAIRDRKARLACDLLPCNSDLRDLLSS
UniProt Q96QP1: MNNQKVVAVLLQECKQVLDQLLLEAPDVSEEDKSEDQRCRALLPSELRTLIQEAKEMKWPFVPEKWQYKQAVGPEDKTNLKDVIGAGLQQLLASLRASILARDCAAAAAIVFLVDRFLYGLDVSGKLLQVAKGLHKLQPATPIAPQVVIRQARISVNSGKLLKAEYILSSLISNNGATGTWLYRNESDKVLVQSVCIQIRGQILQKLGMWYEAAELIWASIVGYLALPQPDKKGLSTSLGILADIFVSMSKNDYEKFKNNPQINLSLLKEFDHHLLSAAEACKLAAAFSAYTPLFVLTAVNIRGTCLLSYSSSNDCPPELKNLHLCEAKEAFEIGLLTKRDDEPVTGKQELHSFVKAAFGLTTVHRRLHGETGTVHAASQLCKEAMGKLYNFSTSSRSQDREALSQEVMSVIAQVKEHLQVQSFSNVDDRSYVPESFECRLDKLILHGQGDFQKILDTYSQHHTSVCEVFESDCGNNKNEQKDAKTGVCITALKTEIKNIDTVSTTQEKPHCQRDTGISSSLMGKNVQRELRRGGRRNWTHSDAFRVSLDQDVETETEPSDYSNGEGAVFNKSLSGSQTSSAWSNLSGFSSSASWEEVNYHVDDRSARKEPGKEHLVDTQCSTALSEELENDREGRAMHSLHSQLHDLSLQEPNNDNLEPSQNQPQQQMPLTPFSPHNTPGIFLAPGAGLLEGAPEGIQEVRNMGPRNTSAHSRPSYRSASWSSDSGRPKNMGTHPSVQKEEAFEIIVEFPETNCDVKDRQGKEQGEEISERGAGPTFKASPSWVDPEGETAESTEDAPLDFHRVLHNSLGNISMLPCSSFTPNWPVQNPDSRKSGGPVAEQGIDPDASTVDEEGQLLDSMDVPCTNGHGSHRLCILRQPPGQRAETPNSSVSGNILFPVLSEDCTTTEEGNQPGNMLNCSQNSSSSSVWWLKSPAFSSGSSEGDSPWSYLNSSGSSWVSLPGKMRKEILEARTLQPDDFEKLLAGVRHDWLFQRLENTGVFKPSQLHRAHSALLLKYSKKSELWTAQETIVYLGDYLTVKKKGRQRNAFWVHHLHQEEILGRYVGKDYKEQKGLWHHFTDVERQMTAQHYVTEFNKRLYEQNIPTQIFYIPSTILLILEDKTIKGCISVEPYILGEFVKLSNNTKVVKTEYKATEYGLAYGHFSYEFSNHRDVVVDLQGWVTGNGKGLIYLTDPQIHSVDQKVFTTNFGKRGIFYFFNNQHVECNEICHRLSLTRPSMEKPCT
UniProt Q86YJ7: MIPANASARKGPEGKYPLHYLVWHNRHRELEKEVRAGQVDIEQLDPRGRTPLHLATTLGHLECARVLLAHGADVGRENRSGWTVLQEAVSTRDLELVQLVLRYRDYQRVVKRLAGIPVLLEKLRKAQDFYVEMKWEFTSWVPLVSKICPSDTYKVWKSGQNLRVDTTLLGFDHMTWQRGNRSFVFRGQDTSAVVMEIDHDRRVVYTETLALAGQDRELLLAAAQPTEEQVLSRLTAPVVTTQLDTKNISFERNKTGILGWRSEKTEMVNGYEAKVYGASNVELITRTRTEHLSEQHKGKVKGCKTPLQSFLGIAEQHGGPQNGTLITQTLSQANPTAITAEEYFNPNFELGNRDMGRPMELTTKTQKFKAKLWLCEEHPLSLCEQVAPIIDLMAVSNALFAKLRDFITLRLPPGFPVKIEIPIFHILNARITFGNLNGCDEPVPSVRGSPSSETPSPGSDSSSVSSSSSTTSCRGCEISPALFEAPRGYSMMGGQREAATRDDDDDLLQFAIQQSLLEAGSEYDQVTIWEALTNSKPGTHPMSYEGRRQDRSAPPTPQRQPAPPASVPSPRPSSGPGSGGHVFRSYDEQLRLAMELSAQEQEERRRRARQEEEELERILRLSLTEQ

Legend:
Assay in all cases: log2 fold change, soluble protein after heating vs DMSO (PISA); higher = thermal stabilisation; K562 lysate, 10 uM; active = over 0.2 and 3.5 SD of the protein, either way, in both replicates (recomputed)
ralimetinib = compound: CC(C)(C)Cn1c(N)nc2ccc(-c3[nH]c(C(C)(C)C)nc3-c3ccc(F)cc3)nc21 [ralimetinib]
Method in brief: (§1)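 Soluble protein was defined as the supernatant remaining after 21,000xg for 90 min, following pooling of heated aliquots and adjustment to 0.5% NP-40 at 4°C. Before that, crude K562 extract at 1 mg/mL protein in PBS pH 7.4 with 1 mM MgCl2 was treated with 10 μM compound for 30 min and heated for 3 min across 48°C-58°C. Quantification used TMTpro 16plex LC-MS/MS with channel sums equalised, and values are log-two fold changes in thermal stability relative to solvent controls from duplicates.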

[1] = compound: CC(C)(O)CC(=O)NCCn1ccc2ncnc(Nc3ccc(Oc4cccc(C(F)(F)F)c4)c(Cl)c3)c21
Method in brief: as §1

[2] = compound: CC(C)C1=C2N=C(C=C(N2N=C1)NCC3=CC=CC=C3)NCCCCCCN
Method in brief: as §1

[3] = compound: CC1=C(C(CC(=O)N1)C2=CC=C(C=C2)C(F)(F)F)C(=O)NC3=C(C=C4C(=C3)C=NN4)F
Method in brief: as §1

[4] = compound: CC1=C(C2=C(C=C1)C(=O)C3=CC=CC=C3N2CCCN)C
Method in brief: as §1

[5] = compound: CC1=C(C=C(C=C1)NC(=O)C2=CC(=CC=C2)C(C)(C)C#N)NC3=CC4=C(C=C3)N=CN(C4=O)C
Method in brief: as §1

[6] = compound: CC1=C(C=C(C=C1)NC(=O)C2=CC(=CC=C2)N(C)C)NC(=O)C3=CC=C(C=C3)O
Method in brief: as §1

vemurafenib = compound: CCCS(=O)(=O)Nc1ccc(F)c(C(=O)c2c[nH]c3ncc(-c4ccc(Cl)cc4)cc23)c1F [vemurafenib]
Method in brief: as §1

[7] = compound: CC[C@@H]1C(=O)N(C)c2cnc(Nc3ccc(C(=O)NC4CCN(C)CC4)cc3OC)nc2N1C1CCCC1
Method in brief: as §1

[8] = compound: CCn1c(C(=O)N(C2CC2)C2CC2)cc2c3c(ncn3C)c(Nc3cc(C)n(C)n3)nc21
Method in brief: as §1

[9] = compound: CCn1cc(-c2ccnc3[nH]c(-c4cccc(CN(C)C)c4)cc23)c(-c2ccc(NC(=O)N(C)C)cc2)n1
Method in brief: as §1

[10] = compound: CN1CCC(CNc2ccc3ncc(-c4cccc(OC(F)(F)F)c4)n3n2)CC1
Method in brief: as §1

saracatinib = compound: CN1CCN(CCOc2cc(OC3CCOCC3)c3c(Nc4c(Cl)ccc5c4OCO5)ncnc3c2)CC1 [saracatinib]
Method in brief: as §1

sotrastaurin = compound: CN1CCN(c2nc(C3=C(c4c[nH]c5ccccc45)C(=O)NC3=O)c3ccccc3n2)CC1 [sotrastaurin]
Method in brief: as §1

[11] = compound: CC(=O)c1cnc2ccc(-c3cc(Cl)c(O)c(Cl)c3)nc2c1N[C@H]1CC[C@H](CN(C)C)CC1
Method in brief: as §1

[12] = compound: CC1=CC=C(C=C1)SC2=C3C=C(SC3=CN=C2)C(=O)N
Method in brief: as §1

[13] = compound: CCCS(=O)(=O)Nc1ccc(F)c(C(=O)c2c[nH]c3ncc(Cl)cc23)c1F
Method in brief: as §1

volasertib = compound: CC[C@@H]1C(=O)N(C)c2cnc(Nc3ccc(C(=O)N[C@H]4CC[C@H](N5CCN(CC6CC6)CC5)CC4)cc3OC)nc2N1C(C)C [volasertib]
Method in brief: as §1

Measured: log2 fold change

ALKBH6 isoform 2 (UniProt Q3KRA9)
inactive: ralimetinib 0.073 | [1] -0.033 | [2] -0.063 | [3] -0.036 | [4] 0.017 | [5] 0.098 | [6] -0.138 | vemurafenib -0.097 | [7] -0.032 | [8] 0.037 | [9] 0.058 | [10] -0.034 | saracatinib -0.022 | sotrastaurin 0.042

ALDH18A1 isoform 2 (UniProt P54886)
inactive: ralimetinib -0.308 | [1] -0.245 | [4] -0.378 | [5] 0.03 | [6] 0.19 | vemurafenib 0.308 | [8] 0.043 | saracatinib 0.13 | sotrastaurin 0.121

ANKRD46 (UniProt Q86W74)
inactive: ralimetinib -0.061 | [1] -0.045 | [2] 0.015 | [4] 0.017 | [5] -0.016 | [6] 0.081 | vemurafenib 0.103 | [8] 0.018 | [9] -0.237 | [10] -0.058 | saracatinib 0.029 | sotrastaurin -0.148

ALAS2 (UniProt P22557)
inactive: [5] 0.012 | sotrastaurin 0.039

ALG14 (UniProt Q96F25)
inactive: [11] -0.064 | [12] 0.102 | [13] 0.077 | volasertib -0.053

AKT1S1 (UniProt M0R2V8)
inactive: [11] -0.041 | [3] -0.106 | [12] 0.027 | [13] -0.044 | volasertib 0.022

ANGEL1 (UniProt Q9UNK9)
inactive: ralimetinib 0.132 | [1] -0.297 | [3] -0.001 | [5] 0.011 | [6] -0.056 | [8] -0.45 | [9] -0.365 | [10] -0.001 | sotrastaurin -0.119

AP2M1 (UniProt C9JPV8)
inactive: [11] 0.067 | [12] -0.032 | [13] -0.267 | volasertib -0.05

AP1S2 (UniProt H7BZG6)
inactive: [2] -0.026

ANKIB1 (UniProt Q9P2G1)
inactive: ralimetinib 0.072 | [1] 0.058 | [6] 0.013 | [8] 0.111

AP3S2 (UniProt P59780)
inactive: [11] -0.026 | [2] -0.022 | [3] -0.1 | [12] -0.028 | [13] 0.032 | volasertib -0.041

ANKRD11 (UniProt Q6UB99)
inactive: ralimetinib -0.029 | [1] -0.025 | [2] 0.053 | [4] -0.125 | [5] 0.037 | [6] 0.012 | vemurafenib 0.054 | [7] -0.027 | [8] -0.005 | [9] -0.046 | [10] -0.337 | saracatinib 0.161 | sotrastaurin 0.094

AMMECR1L (UniProt Q6DCA0)
inactive: ralimetinib -0.009 | [1] 0.102 | [2] 0.08 | [4] -0.008 | [5] 0.14 | [6] 0.085 | vemurafenib -0.011 | [7] 0.01 | [8] -0.076 | [9] -0.034 | [10] 0.125 | saracatinib -0.091 | sotrastaurin -0.054

AMFR (UniProt Q9UKV5)
inactive: ralimetinib 0.049 | [1] 0.014 | [2] 0 | [3] 0.038 | [4] -0.093 | [5] -0.056 | [6] -0.005 | vemurafenib 0.044 | [7] -0.049 | [8] -0.027 | [9] -0.191 | [10] 0.03 | saracatinib 0.048 | sotrastaurin 0.008

AMN1 (UniProt Q8IY45)
inactive: [11] -0.019 | [12] 0.116 | [13] -0.007 | volasertib -0.105 | [9] -0.105 | [10] 0.003

AP1G1 (UniProt H3BV30)
inactive: [11] -0.26 | [12] -0.429 | [13] -0.131 | volasertib 0.091

ANAPC15 isoform 2 (UniProt P60006)
inactive: [2] 0.064 | [3] 0.087 | [4] -0.164 | [5] 0.03 | [7] 0.185 | [9] -0.212 | [10] -0.084 | saracatinib -0.147 | sotrastaurin -0.022

AMIGO2 (UniProt Q86SJ2)
inactive: [3] 0.023 | vemurafenib 0.034 | [9] -0.103 | [10] -0.093

ALOX5 (UniProt P09917)
inactive: [9] 0.092 | [10] 0.215

ALDH3A2 isoform 2 (UniProt P51648)
inactive: ralimetinib -0.131 | [1] 0.443 | [3] -0.208 | [4] 0.347 | [6] 0.362 | [8] 0.069 | [9] -0.15 | [10] 0.084 | saracatinib 0.843

AMOT (UniProt Q4VCS5)
inactive: ralimetinib 0.046 | [1] -0.038 | [3] 0.037 | [4] -0.009 | [5] 0.024 | [6] -0.02 | [7] 0.009 | [8] -0.075 | saracatinib -0.048 | sotrastaurin -0.015

Copied from above (5 entries):
ANAPC15 isoform 2 (UniProt P60006)
inactive: [2] 0.064 | [3] 0.087 | [4] -0.164 | [5] 0.03 | [7] 0.185 | [9] -0.212 | [10] -0.084 | saracatinib -0.147 | sotrastaurin -0.022

AMIGO2 (UniProt Q86SJ2)
inactive: [3] 0.023 | vemurafenib 0.034 | [9] -0.103 | [10] -0.093

ALOX5 (UniProt P09917)
inactive: [9] 0.092 | [10] 0.215

ALDH3A2 isoform 2 (UniProt P51648)
inactive: ralimetinib -0.131 | [1] 0.443 | [3] -0.208 | [4] 0.347 | [6] 0.362 | [8] 0.069 | [9] -0.15 | [10] 0.084 | saracatinib 0.843

AMOT (UniProt Q4VCS5)
inactive: ralimetinib 0.046 | [1] -0.038 | [3] 0.037 | [4] -0.009 | [5] 0.024 | [6] -0.02 | [7] 0.009 | [8] -0.075 | saracatinib -0.048 | sotrastaurin -0.015

(further entries)

ANKRD39 (UniProt Q53RE8)
inactive: [3] -0.047 | [4] 0.026 | [5] 0.281 | [9] -0.057 | [10] -0.057 | saracatinib 0.019 | sotrastaurin -0.058

ALPK1 (UniProt Q96QP1)
inactive: [2] -0.021

ANKRD13B (UniProt Q86YJ7)
inactive: [11] -0.119 | [4] -0.078 | [12] -0.022 | [13] -0.119 | [7] -0.065 | volasertib -0.027 | saracatinib -0.21

AP2M1 (UniProt C9JTK4)
inactive: ralimetinib 0.209 | [1] -0.095 | [6] 0.027 | [8] -0.229

ALDH1A3 (UniProt P47895)
inactive: [7] -0.002

ANKS1B (UniProt Q7Z6G8)
inactive: [11] 0.026 | [12] -0.07 | [13] 0.071 | volasertib 0.033

ANO9 (UniProt A1A5B4)
inactive: ralimetinib -0.061 | [1] -0.151 | [4] -0.012 | [6] -0.274 | [8] 0.113 | saracatinib -0.038

ALKBH1 (UniProt Q13686)
inactive: ralimetinib 0.095 | [1] -0.1 | [2] 0.008 | [3] -0.003 | [4] -0.102 | [6] 0.093 | vemurafenib 0.069 | [7] -0.05 | [8] -0.043 | [9] 0.015 | [10] -0.072 | saracatinib -0.037
